Results taken from patent US20250195542A1, “METABOLIC DISEASE THERAPEUTIC AGENT OR PREVENTIVE AGENT” (Peking University, priority 2022, published 2025).
For part of these data: At least one structure is not confirmed: it was looked up by name or label, or the drawing left a doubt. Some results were stated once for a whole list of compounds, not compound by compound.

Tests used:
FGF21 [1] = experiment: FGF21 gene expression in the liver of MCD mice (qPCR); assay type: in vivo, C57BL/6J mice; settings: oral 4 weeks; Antcin C 20 and 40 mg/kg, AK-GLU 26.6 mg/kg; times that of normal mice
Description: Four-week-old male C57BL/6J mice were purchased from the Experimental Animal Center, Peking University Health Science Center. The mice were randomly divided into groups, with 10 mice per group. Methionine choline-deficient diet (MCD) was used to induce non-alcoholic steatohepatitis (NASH), forming the MCD model mice. The model mice were treated with an oral administration of drugs for 4 weeks. After the final treatment, the mice were fasted overnight, and then sacrificed. Serum and liver tissues were stored at −80° C., which could be compared with untreated MCD mice (“MCD”) and normal mice (“Nor” or “Normal”). The dosing amounts for each group were as follows: low-dose Antcin C (“AC-L”): 20 mg/kg; high-dose Antcin C (“AC-H”): 40 mg/kg; DEA: 20 mg/kg; AK-GLU: 26.6 mg/kg.
Total RNA Extraction: Liver tissue samples from the mice (10-20 mg) were cut into pieces and added to 1 ml of Tranzol. The mixture was placed on ice and homogenized, then transferred to an RNase-free and DNase-free EP tube. To each tube, 0.2 ml of chloroform was added, and the mixture was vigorously shaken for 15 seconds. After incubation at low temperature for 3 minutes, the mixture was centrifuged at 12000 rpm for 15 minutes at 4° C. The aqueous upper phase was transferred to a new EP tube, and an equal volume of isopropanol was added. […] RNA concentration was measured using a spectrophotometer with an A260/280 ratio. […]

FGF21 [2] = settings: Hu Y et al, 2020; cited from earlier work

For `C=C(CC[C@@H](C)[C@H]1CC[C@H]2C3=C(C(=O)C[C@]12C)[C@@]1(C)CC[C@@H](O)[C@](C)(O)[C@@H]1C[C@@H]3O[C@@H]1OC(CO)[C@@H](O)[C@H](O)C1O)C(C)C(=O)O` (stereo partly drawn) [AK-GLU, Antcin K-7-O-glucoside], the “FGF21 expression levels in the liver of MCD mice relative to normal mice” value (FGF21 [1]) was “more than 300 times”.

In the case of `C=C(CC[C@@H](C)[C@H]1CC[C@H]2C3=C(C(=O)C[C@]12C)[C@@]1(C)CCC(=O)[C@@H](C)[C@@H]1C[C@@H]3O)C(C)C(=O)O` (stereo partly drawn) [Antcin C], the “FGF21 expression levels in the liver of MCD mice relative to normal mice” value (FGF21 [1]) is reported as “more than 300 times”.

For `CC[C@H]1[C@@H](O)[C@@H]2[C@H](CC[C@]3(C)[C@@H]([C@H](C)CCC(=O)O)CC[C@@H]23)[C@@]2(C)CC[C@@H](O)C[C@@H]12` [obeticholic acid], the “upregulation effect on FGF21” value (FGF21 [2]) is given as “relatively weak”.
